Test results published in patent US20090286252A1 (NEW YORK UNIVERSITY, published 2009).
Results are given in words; binding and its absence hold for the method and conditions named. Some results given as binding are weak or reduced against the parent protein; the word gives no strength.

Chains of the proteins cited; added tags and fusions are not shown. Lines headed by an entry give the natural chain unless they say otherwise; changes in a name come on top.
UniProt P10828: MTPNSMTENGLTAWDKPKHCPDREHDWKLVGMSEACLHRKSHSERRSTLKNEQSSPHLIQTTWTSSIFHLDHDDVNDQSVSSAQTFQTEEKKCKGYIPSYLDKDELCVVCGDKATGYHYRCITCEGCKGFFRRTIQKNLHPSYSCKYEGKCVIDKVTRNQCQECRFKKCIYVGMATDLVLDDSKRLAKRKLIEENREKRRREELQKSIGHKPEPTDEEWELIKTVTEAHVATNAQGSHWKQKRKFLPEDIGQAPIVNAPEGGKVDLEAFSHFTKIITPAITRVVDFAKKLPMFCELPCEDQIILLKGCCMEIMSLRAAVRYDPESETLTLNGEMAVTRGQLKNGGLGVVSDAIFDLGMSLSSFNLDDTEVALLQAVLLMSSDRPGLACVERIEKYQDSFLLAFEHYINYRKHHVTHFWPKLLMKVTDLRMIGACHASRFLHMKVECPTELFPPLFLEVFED
UniProt Q13352: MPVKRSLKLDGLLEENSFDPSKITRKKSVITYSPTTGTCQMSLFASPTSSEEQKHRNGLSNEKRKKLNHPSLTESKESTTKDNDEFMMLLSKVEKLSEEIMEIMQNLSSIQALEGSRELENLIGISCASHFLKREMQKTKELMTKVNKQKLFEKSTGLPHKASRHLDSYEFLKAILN
UniProt P62195: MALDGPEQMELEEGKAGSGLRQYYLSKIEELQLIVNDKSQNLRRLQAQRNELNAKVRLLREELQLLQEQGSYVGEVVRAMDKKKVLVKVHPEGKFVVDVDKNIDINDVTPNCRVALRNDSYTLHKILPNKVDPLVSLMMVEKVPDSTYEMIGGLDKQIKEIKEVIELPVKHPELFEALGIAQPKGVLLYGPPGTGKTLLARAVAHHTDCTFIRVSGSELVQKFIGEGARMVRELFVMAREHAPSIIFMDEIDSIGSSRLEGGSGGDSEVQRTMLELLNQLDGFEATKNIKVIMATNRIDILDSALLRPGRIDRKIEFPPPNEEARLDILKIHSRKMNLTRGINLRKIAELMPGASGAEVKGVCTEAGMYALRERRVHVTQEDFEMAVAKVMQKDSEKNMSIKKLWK

Tests used:
[1] = molecular target: T1, LexA-cTRα LBD (chicken, UniProt P0A7C2 1-202; P04625 120-408, limits assumed); test: yeast two-hybrid, β-galactosidase; little interaction without T3 (FIG. 1)
T1 construct: also called LexA-TR LBD; LexA-TR
T1 sequence (looked up): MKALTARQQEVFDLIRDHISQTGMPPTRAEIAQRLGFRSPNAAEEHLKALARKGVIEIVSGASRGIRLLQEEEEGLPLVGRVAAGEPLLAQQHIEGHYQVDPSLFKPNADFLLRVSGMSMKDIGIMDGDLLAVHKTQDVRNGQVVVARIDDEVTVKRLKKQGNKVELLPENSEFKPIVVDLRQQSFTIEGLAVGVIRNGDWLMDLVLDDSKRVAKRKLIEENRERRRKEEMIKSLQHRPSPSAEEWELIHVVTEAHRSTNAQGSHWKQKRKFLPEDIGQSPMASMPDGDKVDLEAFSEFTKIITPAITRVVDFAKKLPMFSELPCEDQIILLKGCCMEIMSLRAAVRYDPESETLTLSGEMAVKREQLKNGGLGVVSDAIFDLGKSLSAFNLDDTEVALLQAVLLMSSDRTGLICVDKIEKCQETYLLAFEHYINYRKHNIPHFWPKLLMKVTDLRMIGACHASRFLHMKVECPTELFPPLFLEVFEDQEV

[2] = molecular target: T2, LexA-hRXRα LBD (human, UniProt P0A7C2 1-202; P19793 198-462, limits assumed); test: yeast two-hybrid, β-galactosidase (Table 1); little if any interaction without ligand
T2 construct: also called LexA-RXR
T2 sequence (looked up): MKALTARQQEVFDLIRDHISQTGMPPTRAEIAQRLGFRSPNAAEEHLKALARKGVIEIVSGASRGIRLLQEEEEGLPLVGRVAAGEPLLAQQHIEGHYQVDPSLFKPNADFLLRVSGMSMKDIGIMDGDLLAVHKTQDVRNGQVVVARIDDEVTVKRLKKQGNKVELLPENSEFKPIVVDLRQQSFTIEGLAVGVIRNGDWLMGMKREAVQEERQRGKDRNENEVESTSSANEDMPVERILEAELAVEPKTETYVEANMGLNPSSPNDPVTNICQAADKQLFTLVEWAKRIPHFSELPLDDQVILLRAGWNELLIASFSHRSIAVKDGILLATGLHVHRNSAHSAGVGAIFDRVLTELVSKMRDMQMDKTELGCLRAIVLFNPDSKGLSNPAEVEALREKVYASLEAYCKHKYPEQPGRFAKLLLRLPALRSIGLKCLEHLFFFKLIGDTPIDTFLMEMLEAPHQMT

[3] = molecular target: T1, LexA-cTRα LBD; test: as above
[4] = molecular target: T1, LexA-cTRα LBD; test: yeast two-hybrid, β-galactosidase induced by T3 (FIG. 1 legend)
[5] = molecular target: LexA-hTRβ LBD (human) (UniProt P0A7C2+P10828); test: yeast two-hybrid (data not shown)
[6] = molecular target: T1, LexA-cTRα LBD; test: yeast two-hybrid (data not shown)
[7] = molecular target: T1, LexA-cTRα LBD; test: yeast two-hybrid, β-galactosidase, positive control prey (FIG. 1)

Measured: binding

NRIF3 fused to the B42 activation domain (from UniProt Q13352 1-177)
not listed: [7]
binds: all other assays above

B42-Trip 1 (from UniProt P62195 1-406)
binds: [7]
